Values from PubChem BioAssay AID1671195 (Yale University, 2021)
Purpose: 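Regulators of LDL receptor activity judged by labelled LDL uptake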 (primary screen). Cell system: human Huh7 hepatoma cells. Knock-down reagent: siRNA pool against human genes, 18 nM. Time to read-out: about 2 to 2.5 days of knockdown, then 8 h LDL uptake. Conditions: DiI-labelled LDL at 30 µg/ml for 8 h, in lipoprotein-deficient serum medium. Read-out: 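Fluorescent LDL signal imaged in cells, scaled to the plate median, robust z-score for each replicate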. Reading the numbers: robust z-score: higher = more LDL uptake after knockdown. Active means: 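Active when two or more replicates show a robust z-score above 2 or below -2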.
In all, the deposit lists about 22,000 reagents; this is an unselected part. About 1,510 of them (6.9%) were called active. 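Active includes knockdowns raising or lowering LDL uptake; positive z-scores mean more uptake, negative mean less.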

target gene | robust z-score, replicate 1 | robust z-score, replicate 2 | robust z-score, replicate 3 | call
GTF3C6 | 1.79 | 0.302 | -0.0643 | inactive
SLC25A31 | -1.72 | -1.74 | -1.61 | inactive
ZNF81 | -1.04 | -1.11 | -0.979 | inactive
SPACA9 | -0.244 | -0.0754 | 0.122 | inactive
HOMER1 | 0.246 | 2.49 | -0.143 | inactive
DHX15 | -0.19 | -1.19 | 0.266 | inactive
HADHA | 0.465 | 0.517 | 0.576 | inactive
TRIM33 | 1.97 | 0.857 | 1.38 | inactive
GPX4 | -2.86 | -2.46 | -2.03 | active
HMBS | 1.91 | 1.28 | 2.64 | inactive
DGAT1 | -0.0825 | -0.857 | -0.69 | inactive
PARVG | -0.878 | -1.15 | -1.35 | inactive
CHCHD2P10 | -1.12 | -1.03 | -0.733 | inactive
CCND1 | 1.49 | 0.404 | 0.409 | inactive
SPATA16 | -0.954 | -0.27 | -0.0304 | inactive
NCOA6 | -0.337 | -1.44 | -0.26 | inactive
PRAG1 | -0.2 | -0.215 | -0.469 | inactive
RBFOX3 | -0.758 | 0.548 | 0.147 | inactive
CDC123 | -1.26 | -0.843 | -1.36 | inactive
RNF139 | -0.575 | 0.536 | 0.175 | inactive
CD1C | 0.946 | -0.056 | 1.99 | inactive
MAPK1IP1L | 0.174 | 0.204 | -0.153 | inactive
CD1A | 1.66 | 1.92 | -0.388 | inactive
MAGEB16 | -0.79 | -0.725 | -1.05 | inactive
CIB4 | 0.0559 | -0.514 | 1.03 | inactive
KRTAP5-11 | 0.567 | 0.0964 | 0.501 | inactive
RBM4B | -1.23 | -1.38 | -1 | inactive
THUMPD3-AS1 | 1.1 | 1.17 | 1.34 | inactive
RBM38 | -0.894 | -0.71 | -0.729 | inactive
AARS1 | 0.266 | 0.505 | 0.654 | inactive
RAB39A | 0.733 | -0.782 | -0.814 | inactive
LSM10 | -0.638 | -0.218 | -0.33 | inactive
TRAM1L1 | -0.114 | 0.00893 | 0.161 | inactive
CCNP | 0.475 | -0.0981 | 0.352 | inactive
UNG | 0.0919 | 0.144 | -0.0449 | inactive
SAA4 | -0.921 | -0.951 | -0.573 | inactive
RSBN1L | -0.456 | 0.274 | 0.47 | inactive
SIX1 | 0.811 | -0.351 | -0.374 | inactive
D2HGDH | 0.829 | 1.36 | 0.585 | inactive
PHLPP2 | 0.828 | 3.54 | 0.461 | inactive
PEX11G | 0.037 | 0.575 | 0.759 | inactive
KLHDC4 | -1.3 | -2.06 | -1.03 | inactive
ANXA11 | 0.927 | 0.0848 | 0.552 | inactive
ARHGAP26 | 0.915 | 0.991 | 0.916 | inactive
ECI2 | 0.984 | -0.892 | 0.0381 | inactive
MYF6 | 0.0155 | 0.186 | 0.654 | inactive
ASB8 | -0.95 | -1.5 | -0.283 | inactive
FRG1BP | -0.162 | 0.527 | -0.00323 | inactive
WDR19 | 0.577 | 0.438 | 0.581 | inactive
FGGY | -0.517 | -0.26 | -1.05 | inactive
PTX4 | -1.08 | -1.38 | -1.34 | inactive
RMND5B | -0.95 | -0.93 | -0.672 | inactive
HINT2 | -1.52 | -1.6 | -1.68 | inactive
LINC02181 | 1.71 | 2.32 | 1.45 | inactive
DLX6 | 0.789 | 0.994 | 0.787 | inactive
SPHAR (retired record) | 1.02 | -0.497 | 0.778 | inactive
CPXM2 | -1.09 | -1.57 | -1.05 | inactive
ART1 | 0.742 | -0.426 | 0.584 | inactive
SDHAF3 | 1.19 | 0.587 | 0.0257 | inactive
DNAAF9 | 0.219 | 1.16 | -0.0492 | inactive
NECAB2 | -0.306 | -0.368 | -1.41 | inactive
SLTM | 0.598 | -0.0931 | 0.246 | inactive
IL36R | 0.485 | -0.28 | 0.102 | inactive
LOC389773 (retired record) | -0.123 | -0.483 | -0.377 | inactive
FGF12 | 0.154 | -0.258 | -0.0107 | inactive
LOC151256 (retired record) | 3.33 | 2.22 | 2.41 | active
SCAF1 | 0.462 | 0.0196 | -0.368 | inactive
MYRF | 0.459 | 0.593 | -0.297 | inactive
LOC441023 (retired record) | 0.296 | 0.909 | 0.215 | inactive
MAT2A | 1.24 | -0.705 | -0.395 | inactive
AP2M1 | -1.79 | -1.43 | -2.21 | inactive
PROX2 | -0.268 | 0.0207 | 0.191 | inactive
HNRNPL | 0.578 | 0.19 | -0.0823 | inactive
PADI1 | -0.863 | -0.572 | -0.828 | inactive
PROSER2 | -0.763 | -0.445 | -0.301 | inactive
EXTL3 | -0.837 | -1.04 | -0.773 | inactive
ANO2 | -0.0796 | -0.894 | -0.65 | inactive
B4GALT1 | -0.847 | -1.05 | -0.634 | inactive
SYNGR4 | -0.472 | 0.993 | -0.695 | inactive
HOTAIR | 0.886 | 0.0114 | 0.146 | inactive
DACT3 | 1.91 | 1.39 | 1.89 | inactive
MYPN | -0.763 | -1.21 | -0.983 | inactive
ALG13 | 0.591 | 1.15 | 1.16 | inactive
RBCK1 | 1.91 | 0.229 | 3.84 | active
OGT | 0.625 | 2.36 | 0.591 | inactive
SYT9 | 0.947 | 0.394 | 0.00519 | inactive
ZNFX1 | 0.146 | 0.494 | -0.597 | inactive
